# Article PMC8384837
# Where a chain is given by its changes, count along the chain named. The list shows a part of the results. For some of these results: At the low end of the ranking, values are background and their order means little.
# Columns and labels:
# Conditions in all cases: yeast three-hybrid, YBZ-1, SC-Leu-His + 0.5 mM 3-AT, 4 days
# [1] = target: T1, PUM1 PUF domain R3-RRA C935R + Q939A (Homo sapiens) (UniProt Q14671)
# T1 sequence: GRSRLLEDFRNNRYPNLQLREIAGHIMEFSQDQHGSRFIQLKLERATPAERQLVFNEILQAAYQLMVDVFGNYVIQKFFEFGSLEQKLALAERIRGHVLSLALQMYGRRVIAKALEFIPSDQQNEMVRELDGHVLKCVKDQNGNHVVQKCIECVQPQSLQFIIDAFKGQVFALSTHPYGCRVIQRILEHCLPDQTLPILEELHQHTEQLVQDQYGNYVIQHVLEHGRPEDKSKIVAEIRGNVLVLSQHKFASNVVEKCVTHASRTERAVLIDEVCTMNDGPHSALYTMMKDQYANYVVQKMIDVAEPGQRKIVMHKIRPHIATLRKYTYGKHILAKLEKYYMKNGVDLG
# [2] = target: T2, PUM1 PUF domain R3-RRP C935R + Q939P (Homo sapiens) (UniProt Q14671)
# T2 sequence: T1 sequence with A112P
# [3] = target: T3, PUM1 PUF domain R3-RRR C935R + Q939R (Homo sapiens) (UniProt Q14671)
# T3 sequence: T1 sequence with A112R
# [4] = target: T4, PUM1 PUF domain R3-RRS C935R + Q939S (Homo sapiens) (UniProt Q14671)
# T4 sequence: T1 sequence with A112S
# [5] = target: T5, PUM1 PUF domain R3-RRW C935R + Q939W (Homo sapiens) (UniProt Q14671)
# T5 sequence: T1 sequence with A112W
# [6] = target: T6, PUM1 PUF domain R3-RSA C935R + R936S + Q939A (Homo sapiens) (UniProt Q14671)
# T6 sequence: T1 sequence with R109S
# [7] = target: T7, PUM1 PUF domain R3-RSL C935R + R936S + Q939L (Homo sapiens) (UniProt Q14671)
# T7 sequence: T1 sequence with R109S, A112L
# [8] = target: T8, PUM1 PUF domain R3-RSR C935R + R936S + Q939R (Homo sapiens) (UniProt Q14671)
# T8 sequence: T1 sequence with R109S, A112R
# [9] = target: T9, PUM1 PUF domain R3-RSY C935R + R936S + Q939Y (Homo sapiens) (UniProt Q14671)
# T9 sequence: T1 sequence with R109S, A112Y
# [10] = target: T10, PUM1 PUF domain R3-RTL C935R + R936T + Q939L (Homo sapiens) (UniProt Q14671)
# T10 sequence: T1 sequence with R109T, A112L
# [11] = target: T11, PUM1 PUF domain R3-RVQ C935R + R936V (UniProt Q14671)
# T11 sequence: T1 sequence with R109V, A112Q
# [12] = target: T12, PUM1 PUF domain R3-SAE C935S + R936A + Q939E (UniProt Q14671)
# T12 sequence: T1 sequence with R108S, R109A, A112E
# [13] = target: T13, PUM1 PUF domain R3-SGE C935S + R936G + Q939E (UniProt Q14671)
# T13 sequence: T1 sequence with R108S, R109G, A112E
# [14] = target: T14, PUM1 PUF domain R3-STD C935S + R936T + Q939D (UniProt Q14671)
# T14 sequence: T1 sequence with R108S, R109T, A112D
# [15] = target: T15, PUM1 PUF domain R3-TCE C935T + R936C + Q939E (UniProt Q14671)
# T15 sequence: T1 sequence with R108T, R109C, A112E
# [16] = target: T16, PUM1 PUF domain R3-TSE C935T + R936S + Q939E (UniProt Q14671)
# T16 sequence: T1 sequence with R108T, R109S, A112E
# [17] = target: T17, PUM1 PUF domain R3-TSR C935T + R936S + Q939R (Homo sapiens) (UniProt Q14671)
# T17 sequence: T1 sequence with R108T, R109S, A112R
# [18] = target: T18, PUM1 PUF domain R3-TTE C935T + R936T + Q939E (UniProt Q14671)
# T18 sequence: T1 sequence with R108T, R109T, A112E
# [19] = target: T19, PUM1 PUF domain R3-TVE C935T + R936V + Q939E (UniProt Q14671)
# T19 sequence: T1 sequence with R108T, R109V, A112E
# [20] = target: T20, PUM1 PUF domain R3-VSK C935V + R936S + Q939K (Homo sapiens) (UniProt Q14671)
# T20 sequence: T1 sequence with R108V, R109S, A112K
Sequence,binding signal (log2 enrichment (interaction score)) [1],binding signal (log2 enrichment (interaction score)) [2],binding signal (log2 enrichment (interaction score)) [3],binding signal (log2 enrichment (interaction score)) [4],binding signal (log2 enrichment (interaction score)) [5],binding signal (log2 enrichment (interaction score)) [6],binding signal (log2 enrichment (interaction score)) [7],binding signal (log2 enrichment (interaction score)) [8],binding signal (log2 enrichment (interaction score)) [9],binding signal (log2 enrichment (interaction score)) [10],binding signal (log2 enrichment (interaction score)) [11],binding signal (log2 enrichment (interaction score)) [12],binding signal (log2 enrichment (interaction score)) [13],binding signal (log2 enrichment (interaction score)) [14],binding signal (log2 enrichment (interaction score)) [15],binding signal (log2 enrichment (interaction score)) [16],binding signal (log2 enrichment (interaction score)) [17],binding signal (log2 enrichment (interaction score)) [18],binding signal (log2 enrichment (interaction score)) [19],binding signal (log2 enrichment (interaction score)) [20]
GGCUAGAACUAGUGGAUCCCCCGGCGCCCGGCGGCUCGAGCCCGGGUAAGUGUAAAUAGUCUGCAUGCCGCCGGGCGCCAUGCCUGCAGGUCGACUCUAGAAAACAUG,-1.99,0.07,-0.34,-1.65,-0.79,-1.65,-1.92,-1.71,-1.01,-1.46,< -8.04,-3.73,< -9.35,< -9.44,-3.2,< -9.14,-0.15,< -7.54,< -9.17,-1.02
GGCUAGAACUAGUGGAUCCCCCGGCGCCCGGCGGCUCGAGCCCGGGUAAGUGUAAGUAGUCUGCAUGCCGCCGGGCGCCAUGCCUGCAGGUCGACUCUAGAAAACAUG,-1.16,0.4,0.03,-1.31,-1.22,-0,0.94,-1.61,0.05,-1.27,-2.22,–,–,–,–,–,0.13,–,–,-0.34
GGCUAGAACUAGUGGAUCCCCCGGCGCCCGGCGGCUCGAGCCCGGGUAAGUGUAAUUAGUCUGCAUGCCGCCGGGCGCCAUGCCUGCAGGUCGACUCUAGAAAACAUG,–,–,–,–,–,–,–,–,–,–,–,< -8.12,-5.61,-5.34,< -7.24,< -8.61,–,< -7.54,< -8.19,–
